In publication PMC9205938:
Like-named read-outs stand apart in the source and are kept apart here. These are yes or no findings as the source states them, for the method shown. For some assays here: Binding seen in cells or lysates may run through a third protein. Some results given as binding are weak or reduced against the parent protein; the word gives no strength. For some assays here: Where a sequence is shown, tags or fusion partners need not be part of it. One block for each molecule: values may come before it.

The chains behind the UniProt entries cited, without tags or fusion partners.
UniProt P97929: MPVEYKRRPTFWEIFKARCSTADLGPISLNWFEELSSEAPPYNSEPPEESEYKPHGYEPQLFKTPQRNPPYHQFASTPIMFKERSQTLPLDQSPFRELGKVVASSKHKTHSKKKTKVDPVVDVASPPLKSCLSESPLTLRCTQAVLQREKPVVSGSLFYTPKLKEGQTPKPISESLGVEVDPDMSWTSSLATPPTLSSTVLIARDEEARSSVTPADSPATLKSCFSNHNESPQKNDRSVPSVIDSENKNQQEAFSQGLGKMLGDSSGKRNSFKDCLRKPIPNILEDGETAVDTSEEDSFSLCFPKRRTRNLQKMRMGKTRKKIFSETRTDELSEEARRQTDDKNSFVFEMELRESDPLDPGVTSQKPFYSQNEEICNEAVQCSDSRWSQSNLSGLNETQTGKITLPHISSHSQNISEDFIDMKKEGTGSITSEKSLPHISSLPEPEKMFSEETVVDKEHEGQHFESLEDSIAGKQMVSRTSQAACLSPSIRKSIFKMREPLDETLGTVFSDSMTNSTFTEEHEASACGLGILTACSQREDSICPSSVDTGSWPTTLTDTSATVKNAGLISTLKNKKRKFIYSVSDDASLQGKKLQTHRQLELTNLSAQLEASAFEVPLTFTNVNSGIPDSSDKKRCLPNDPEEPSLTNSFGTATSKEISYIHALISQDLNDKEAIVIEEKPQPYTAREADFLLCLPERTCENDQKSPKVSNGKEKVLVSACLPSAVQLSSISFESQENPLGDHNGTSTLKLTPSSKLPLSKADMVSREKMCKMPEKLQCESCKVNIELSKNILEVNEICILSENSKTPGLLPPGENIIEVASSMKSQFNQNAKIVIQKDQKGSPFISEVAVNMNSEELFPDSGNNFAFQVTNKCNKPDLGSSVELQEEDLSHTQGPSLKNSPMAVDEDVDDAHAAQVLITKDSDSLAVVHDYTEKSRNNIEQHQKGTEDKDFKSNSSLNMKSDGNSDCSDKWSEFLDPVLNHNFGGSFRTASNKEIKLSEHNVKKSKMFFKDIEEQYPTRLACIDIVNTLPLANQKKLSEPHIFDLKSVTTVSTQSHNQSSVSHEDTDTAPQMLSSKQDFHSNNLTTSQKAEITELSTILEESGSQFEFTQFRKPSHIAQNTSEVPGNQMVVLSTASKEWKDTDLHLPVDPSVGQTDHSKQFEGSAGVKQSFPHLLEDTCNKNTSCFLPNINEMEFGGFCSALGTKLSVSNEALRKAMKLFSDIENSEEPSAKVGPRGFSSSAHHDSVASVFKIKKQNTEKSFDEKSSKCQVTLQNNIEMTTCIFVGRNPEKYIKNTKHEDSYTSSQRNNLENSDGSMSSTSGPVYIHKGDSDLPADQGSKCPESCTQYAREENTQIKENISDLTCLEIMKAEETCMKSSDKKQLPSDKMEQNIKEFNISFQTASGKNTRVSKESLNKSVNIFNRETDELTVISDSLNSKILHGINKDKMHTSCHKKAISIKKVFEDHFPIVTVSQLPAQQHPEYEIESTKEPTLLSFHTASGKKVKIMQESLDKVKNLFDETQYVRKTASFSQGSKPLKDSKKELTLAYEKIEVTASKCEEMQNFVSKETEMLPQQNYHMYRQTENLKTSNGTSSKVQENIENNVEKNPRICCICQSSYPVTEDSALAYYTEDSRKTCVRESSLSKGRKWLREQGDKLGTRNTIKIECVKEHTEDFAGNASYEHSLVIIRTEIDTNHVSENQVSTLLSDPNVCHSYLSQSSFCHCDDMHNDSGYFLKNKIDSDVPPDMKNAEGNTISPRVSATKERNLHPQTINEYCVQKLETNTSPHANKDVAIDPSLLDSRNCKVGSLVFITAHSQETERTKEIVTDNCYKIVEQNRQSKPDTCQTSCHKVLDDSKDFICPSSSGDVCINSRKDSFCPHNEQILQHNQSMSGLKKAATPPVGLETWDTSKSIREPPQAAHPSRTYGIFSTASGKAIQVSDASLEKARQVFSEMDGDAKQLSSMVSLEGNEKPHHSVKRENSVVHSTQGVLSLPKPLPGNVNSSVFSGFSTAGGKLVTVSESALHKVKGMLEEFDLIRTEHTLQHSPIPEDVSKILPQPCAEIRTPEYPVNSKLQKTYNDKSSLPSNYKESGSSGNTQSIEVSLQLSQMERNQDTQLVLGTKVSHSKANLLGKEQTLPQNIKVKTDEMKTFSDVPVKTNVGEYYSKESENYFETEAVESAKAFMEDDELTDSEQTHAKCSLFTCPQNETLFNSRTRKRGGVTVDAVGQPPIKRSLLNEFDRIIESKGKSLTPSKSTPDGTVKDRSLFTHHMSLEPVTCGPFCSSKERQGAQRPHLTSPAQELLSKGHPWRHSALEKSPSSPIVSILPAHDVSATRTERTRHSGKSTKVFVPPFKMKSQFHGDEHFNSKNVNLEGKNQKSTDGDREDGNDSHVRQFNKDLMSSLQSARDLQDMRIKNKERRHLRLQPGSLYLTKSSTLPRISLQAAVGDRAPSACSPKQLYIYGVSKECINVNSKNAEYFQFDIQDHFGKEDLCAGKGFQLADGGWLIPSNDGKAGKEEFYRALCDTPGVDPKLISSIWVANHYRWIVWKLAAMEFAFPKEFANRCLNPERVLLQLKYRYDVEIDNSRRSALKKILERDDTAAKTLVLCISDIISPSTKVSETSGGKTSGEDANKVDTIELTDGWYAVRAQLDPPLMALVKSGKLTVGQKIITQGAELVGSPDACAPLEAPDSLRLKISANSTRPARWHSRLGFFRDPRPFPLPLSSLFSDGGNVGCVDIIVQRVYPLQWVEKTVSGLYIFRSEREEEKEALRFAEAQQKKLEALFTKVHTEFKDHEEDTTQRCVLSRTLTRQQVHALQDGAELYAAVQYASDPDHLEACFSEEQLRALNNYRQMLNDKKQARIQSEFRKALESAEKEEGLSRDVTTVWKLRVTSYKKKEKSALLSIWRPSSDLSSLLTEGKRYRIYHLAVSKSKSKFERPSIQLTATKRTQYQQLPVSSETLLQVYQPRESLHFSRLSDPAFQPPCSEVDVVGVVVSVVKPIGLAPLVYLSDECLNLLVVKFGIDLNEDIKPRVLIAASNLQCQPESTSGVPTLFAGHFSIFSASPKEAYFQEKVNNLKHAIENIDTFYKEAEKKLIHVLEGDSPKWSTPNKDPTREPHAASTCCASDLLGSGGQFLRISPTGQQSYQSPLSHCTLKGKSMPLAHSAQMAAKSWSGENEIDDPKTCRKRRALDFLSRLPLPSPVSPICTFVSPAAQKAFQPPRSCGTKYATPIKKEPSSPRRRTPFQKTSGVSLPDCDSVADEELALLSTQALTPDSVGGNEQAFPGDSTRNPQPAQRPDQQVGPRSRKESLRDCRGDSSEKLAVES
UniProt Q80U70: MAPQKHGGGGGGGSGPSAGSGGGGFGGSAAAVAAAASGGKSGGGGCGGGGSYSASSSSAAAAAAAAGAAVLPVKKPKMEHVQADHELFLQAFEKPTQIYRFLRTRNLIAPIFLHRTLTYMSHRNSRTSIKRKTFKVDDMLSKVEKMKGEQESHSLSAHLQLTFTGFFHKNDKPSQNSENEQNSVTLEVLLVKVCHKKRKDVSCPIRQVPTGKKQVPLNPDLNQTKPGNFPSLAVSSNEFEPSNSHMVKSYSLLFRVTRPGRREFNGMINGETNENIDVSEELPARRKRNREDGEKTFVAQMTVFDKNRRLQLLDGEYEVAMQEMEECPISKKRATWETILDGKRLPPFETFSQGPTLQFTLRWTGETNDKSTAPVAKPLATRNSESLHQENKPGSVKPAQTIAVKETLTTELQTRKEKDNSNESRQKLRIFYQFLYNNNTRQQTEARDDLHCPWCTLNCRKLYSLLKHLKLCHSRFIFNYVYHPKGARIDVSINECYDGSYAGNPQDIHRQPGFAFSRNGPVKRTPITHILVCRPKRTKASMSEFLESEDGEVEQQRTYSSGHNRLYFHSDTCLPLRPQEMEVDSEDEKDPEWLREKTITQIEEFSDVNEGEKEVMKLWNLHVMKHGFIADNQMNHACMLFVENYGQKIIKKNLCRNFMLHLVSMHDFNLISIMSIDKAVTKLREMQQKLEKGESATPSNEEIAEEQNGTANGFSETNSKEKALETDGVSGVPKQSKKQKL
UniProt P17918: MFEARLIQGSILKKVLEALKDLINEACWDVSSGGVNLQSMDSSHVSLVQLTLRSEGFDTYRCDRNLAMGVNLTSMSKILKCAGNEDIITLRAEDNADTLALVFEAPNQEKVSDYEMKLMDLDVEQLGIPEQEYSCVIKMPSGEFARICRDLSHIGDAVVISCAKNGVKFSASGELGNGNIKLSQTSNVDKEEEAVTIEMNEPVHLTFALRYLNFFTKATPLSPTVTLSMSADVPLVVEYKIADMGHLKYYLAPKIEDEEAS
UniProt A0A338P6K9: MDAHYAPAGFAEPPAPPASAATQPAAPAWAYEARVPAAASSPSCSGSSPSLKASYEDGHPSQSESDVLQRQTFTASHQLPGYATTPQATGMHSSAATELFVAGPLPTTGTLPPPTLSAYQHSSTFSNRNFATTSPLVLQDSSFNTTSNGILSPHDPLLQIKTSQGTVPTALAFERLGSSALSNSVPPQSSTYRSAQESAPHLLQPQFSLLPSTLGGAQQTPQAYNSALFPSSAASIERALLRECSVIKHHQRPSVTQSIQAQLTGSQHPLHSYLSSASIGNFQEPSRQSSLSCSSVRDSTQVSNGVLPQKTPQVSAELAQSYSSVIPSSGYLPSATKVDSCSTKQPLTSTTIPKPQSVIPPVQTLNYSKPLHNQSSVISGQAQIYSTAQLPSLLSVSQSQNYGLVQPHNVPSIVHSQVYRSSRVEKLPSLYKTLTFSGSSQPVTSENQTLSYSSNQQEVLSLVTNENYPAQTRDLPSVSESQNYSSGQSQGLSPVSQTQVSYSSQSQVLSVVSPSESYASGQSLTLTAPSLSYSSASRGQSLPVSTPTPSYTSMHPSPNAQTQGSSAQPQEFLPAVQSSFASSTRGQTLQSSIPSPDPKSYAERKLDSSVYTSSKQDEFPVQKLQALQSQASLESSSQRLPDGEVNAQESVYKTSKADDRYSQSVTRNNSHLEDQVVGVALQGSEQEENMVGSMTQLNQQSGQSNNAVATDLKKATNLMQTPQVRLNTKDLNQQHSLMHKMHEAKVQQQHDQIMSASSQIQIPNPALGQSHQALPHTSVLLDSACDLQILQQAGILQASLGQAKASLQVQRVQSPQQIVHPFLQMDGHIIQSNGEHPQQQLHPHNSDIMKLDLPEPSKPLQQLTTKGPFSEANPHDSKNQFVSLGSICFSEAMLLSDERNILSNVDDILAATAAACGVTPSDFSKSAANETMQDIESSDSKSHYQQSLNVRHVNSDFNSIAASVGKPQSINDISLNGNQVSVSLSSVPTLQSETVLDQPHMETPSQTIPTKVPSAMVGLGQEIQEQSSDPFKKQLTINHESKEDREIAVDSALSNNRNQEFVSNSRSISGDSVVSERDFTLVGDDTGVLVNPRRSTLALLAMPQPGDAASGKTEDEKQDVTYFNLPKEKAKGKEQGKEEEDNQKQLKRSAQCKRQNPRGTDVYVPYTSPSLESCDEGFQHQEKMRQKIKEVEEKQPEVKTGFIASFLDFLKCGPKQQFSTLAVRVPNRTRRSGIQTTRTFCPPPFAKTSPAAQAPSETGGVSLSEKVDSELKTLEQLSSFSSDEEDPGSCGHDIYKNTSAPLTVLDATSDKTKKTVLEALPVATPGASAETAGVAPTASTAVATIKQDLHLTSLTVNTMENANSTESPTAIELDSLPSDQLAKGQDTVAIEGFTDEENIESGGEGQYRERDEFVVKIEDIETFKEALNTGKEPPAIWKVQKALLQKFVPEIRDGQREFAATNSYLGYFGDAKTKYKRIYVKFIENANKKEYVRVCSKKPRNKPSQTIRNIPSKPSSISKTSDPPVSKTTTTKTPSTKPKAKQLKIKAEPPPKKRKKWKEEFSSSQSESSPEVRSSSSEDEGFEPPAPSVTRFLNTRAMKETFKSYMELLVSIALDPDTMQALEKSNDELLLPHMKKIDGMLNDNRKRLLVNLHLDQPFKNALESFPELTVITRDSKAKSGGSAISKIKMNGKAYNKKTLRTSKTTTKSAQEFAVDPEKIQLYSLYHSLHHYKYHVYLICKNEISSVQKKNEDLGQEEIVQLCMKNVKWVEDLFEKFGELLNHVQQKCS

Experiments:
[1] = target: T1, ZFP281 (krüppel-like zinc finger transcription factor), endogenous in mouse ES cells (mouse (endogenous in mouse ES cells)) (UniProt Q99LI5); assay: co-IP; endogenous proteins; cells lysed at 420 mM NaCl, brought to 300 mM NaCl, antibodies and protein A beads overnight at 4 °C, western blot; mouse ES cell lysates (named for Fig. 4b); WT and ZFP281 KO cells in Fig. 5i
T1 sequence: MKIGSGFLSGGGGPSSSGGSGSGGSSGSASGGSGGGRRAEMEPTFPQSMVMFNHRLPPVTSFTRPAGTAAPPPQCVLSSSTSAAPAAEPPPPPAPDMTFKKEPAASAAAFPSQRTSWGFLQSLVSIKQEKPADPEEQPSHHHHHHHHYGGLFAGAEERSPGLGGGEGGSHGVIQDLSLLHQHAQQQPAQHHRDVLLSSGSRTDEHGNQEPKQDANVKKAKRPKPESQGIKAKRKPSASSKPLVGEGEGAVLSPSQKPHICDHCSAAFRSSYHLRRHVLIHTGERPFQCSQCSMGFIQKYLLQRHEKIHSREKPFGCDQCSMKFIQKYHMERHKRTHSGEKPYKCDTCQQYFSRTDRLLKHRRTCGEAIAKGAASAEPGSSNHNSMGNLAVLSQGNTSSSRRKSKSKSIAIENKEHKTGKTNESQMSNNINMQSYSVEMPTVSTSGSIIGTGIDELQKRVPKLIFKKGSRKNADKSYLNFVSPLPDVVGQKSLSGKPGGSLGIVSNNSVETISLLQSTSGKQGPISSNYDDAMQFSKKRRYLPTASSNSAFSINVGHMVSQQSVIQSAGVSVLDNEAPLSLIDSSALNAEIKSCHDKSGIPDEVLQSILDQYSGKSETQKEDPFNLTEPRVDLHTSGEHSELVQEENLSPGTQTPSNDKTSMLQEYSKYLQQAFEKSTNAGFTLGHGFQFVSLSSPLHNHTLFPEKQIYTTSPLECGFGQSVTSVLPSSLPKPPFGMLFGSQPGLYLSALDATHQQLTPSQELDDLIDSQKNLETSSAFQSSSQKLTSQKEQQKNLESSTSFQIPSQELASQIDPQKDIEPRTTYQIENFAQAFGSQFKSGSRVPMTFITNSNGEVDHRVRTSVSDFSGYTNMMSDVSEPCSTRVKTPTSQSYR

[2] = target: T1, ZFP281 (krüppel-like zinc finger transcription factor), endogenous in mouse ES cells (mouse (endogenous in mouse ES cells)); assay: proximity ligation; Duolink In Situ PLA on fixed mouse ESCs with antibodies against ZFP281 and PCNA; cells treated with DMSO or APH (0.3 μM, 16 h)
[3] = target: T2, EMSY, endogenous in mouse ES cells (mouse (endogenous in mouse ES cells)) (UniProt Q8BMB0); assay: co-IP; endogenous proteins; cells lysed at 420 mM NaCl, brought to 300 mM NaCl, antibodies and protein A beads overnight at 4 °C, western blot; mouse ES cell lysates (named for Fig. 4b); WT and ZFP281 KO cells in Fig. 5i
T2 sequence: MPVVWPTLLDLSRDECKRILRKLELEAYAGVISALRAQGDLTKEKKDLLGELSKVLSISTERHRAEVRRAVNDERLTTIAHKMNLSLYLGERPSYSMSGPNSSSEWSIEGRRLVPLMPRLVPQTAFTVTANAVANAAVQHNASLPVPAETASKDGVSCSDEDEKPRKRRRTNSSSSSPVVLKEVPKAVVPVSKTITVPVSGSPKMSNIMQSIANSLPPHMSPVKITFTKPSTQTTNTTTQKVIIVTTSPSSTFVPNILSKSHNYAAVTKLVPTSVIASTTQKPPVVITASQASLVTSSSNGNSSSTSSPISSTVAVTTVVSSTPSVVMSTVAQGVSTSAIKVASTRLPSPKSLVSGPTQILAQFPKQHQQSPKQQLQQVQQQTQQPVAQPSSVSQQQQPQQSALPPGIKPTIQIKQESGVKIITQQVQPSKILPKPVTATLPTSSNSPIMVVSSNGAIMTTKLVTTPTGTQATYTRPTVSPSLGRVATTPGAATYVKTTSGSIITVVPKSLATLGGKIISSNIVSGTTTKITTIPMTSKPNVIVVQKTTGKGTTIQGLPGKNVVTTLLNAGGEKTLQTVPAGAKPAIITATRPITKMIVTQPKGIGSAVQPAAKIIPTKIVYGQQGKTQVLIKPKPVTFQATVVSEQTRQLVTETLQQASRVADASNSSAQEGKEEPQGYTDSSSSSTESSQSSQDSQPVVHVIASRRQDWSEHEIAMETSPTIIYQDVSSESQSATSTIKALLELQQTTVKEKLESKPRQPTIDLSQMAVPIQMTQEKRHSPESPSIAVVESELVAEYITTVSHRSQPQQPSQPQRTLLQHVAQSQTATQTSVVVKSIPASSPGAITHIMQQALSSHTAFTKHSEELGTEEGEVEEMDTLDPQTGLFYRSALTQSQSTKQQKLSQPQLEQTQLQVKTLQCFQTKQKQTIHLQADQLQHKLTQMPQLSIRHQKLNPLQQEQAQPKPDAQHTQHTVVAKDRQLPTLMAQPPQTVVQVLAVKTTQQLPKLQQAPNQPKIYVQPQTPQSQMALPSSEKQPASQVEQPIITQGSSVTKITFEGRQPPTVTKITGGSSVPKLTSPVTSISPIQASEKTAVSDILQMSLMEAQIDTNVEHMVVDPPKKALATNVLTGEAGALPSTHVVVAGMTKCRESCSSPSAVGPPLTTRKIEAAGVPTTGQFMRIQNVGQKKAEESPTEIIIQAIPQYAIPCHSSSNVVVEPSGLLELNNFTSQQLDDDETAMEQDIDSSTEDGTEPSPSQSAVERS

[4] = target: BRCA2, endogenous in mouse ES cells (mouse (endogenous in mouse ES cells)) (UniProt P97929); assay: as above
[5] = target: T1, ZFP281 (krüppel-like zinc finger transcription factor), endogenous in mouse ES cells (mouse (endogenous in mouse ES cells)); assay: SEC; mouse ES cell nuclear extract on Superose 6 increase 3.2/300, 40 mM HEPES pH 7.5, 350 mM NaCl, 10% glycerol, 0.1% Tween-20; fractions by western blot
[6] = target: SUZ12, core component of PRC2, endogenous (UniProt Q80U70); assay: co-IP; endogenous proteins; cells lysed at 420 mM NaCl, brought to 300 mM NaCl, antibodies and protein A beads overnight at 4 °C, western blot; mouse ES cell lysates (named for Fig. 4b); WT and ZFP281 KO cells in Fig. 5i
[7] = target: T3, FLAG-tagged full length ZFP281 (UniProt Q99LI5); assay: co-IP; N-terminally FLAG-tagged ZFP281 (full length, truncated) or BRCA2 truncated proteins expressed in 293 T cells for 48 hrs; ANTI-FLAG M2 affinity gel, western blot
T3 sequence: T1 sequence

[8] = target: SUZ12, core component of PRC2, endogenous (UniProt Q80U70); assay: co-IP; endogenous proteins; cells lysed at 420 mM NaCl, brought to 300 mM NaCl, antibodies and protein A beads overnight at 4 °C, western blot; mouse ES cell lysates (named for Fig. 4b); WT and ZFP281 KO cells in Fig. 5i; remark: listed apart in the source
[9] = target: T1, ZFP281 (krüppel-like zinc finger transcription factor), endogenous in mouse ES cells (mouse (endogenous in mouse ES cells)); assay: as above; remark: listed apart in the source
[10] = target: BRCA2, endogenous in mouse ES cells (mouse (endogenous in mouse ES cells)) (UniProt P97929); assay: as above; remark: listed apart in the source

binding [1]: binds
binding [2]: binds
Molecule: proliferating cell nuclear antigen (PCNA), endogenous in mouse ES cells (from UniProt P17918 1-261)

binding [3]: binds
binding [1]: binds
binding [4]: binds
binding [5]: binds
Molecule: QSER1, endogenous in mouse ES cells (from UniProt A0A338P6K9 1-1788)

binding [6]: binds
binding [1]: binds
binding [5]: binds
Molecule: BRCA2, endogenous in mouse ES cells (from UniProt P97929 1-3329)

binding [7]: binds
Molecule: QSER1 in 293 cells (from UniProt Q2KHR3 1-1735)

binding [8]: binds
B1: ZFP281 (krüppel-like zinc finger transcription factor), endogenous in mouse ES cells (protein, UniProt Q99LI5 1-893)
chain: T1 sequence

binding [9]: binds
binding [10]: binds
binding [5]: binds
B2: EMSY, endogenous in mouse ES cells (protein, UniProt Q8BMB0 1-1264)
chain: T2 sequence
